{"source": "PubChem BioAssay AID1259405 (NCATS, 2018)", "assay": "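Mouse-designed siRNAs used to find CHO productivity engineering targets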 (primary screen)", "system": "Chinese hamster CHO-K1 ovary cells with stable secreted eGFP expression", "reagents": "single siRNA against mouse genes, 0.8 pmol siRNA per well (2 µl of 400 nM stock)", "time to read-out": "3 days", "measurement": "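Percent of the per-plate non-targeting control median for intracellular GFP per well by laser scanning cytometry and for cell viability by ATP luminescence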", "scale": "GFP, % of control: higher = more GFP per well, higher productivity; viability (ATP), % of control: higher = more viable cells (more ATP)", "active means": "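a knock-down is called active if GFP reaches 120% or more of non-targeting control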", "note": "Here is an unselected part of about 50,000 reagents. Of all reagents, about 4,000 (8%) got an active call. 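Mouse siRNA library applied to hamster cells; one well for each siRNA.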 Reagent sequences are not shown."}
{"gene symbol": "Mesp1 (mesoderm posterior 1)", "PubChem SID": "SID363562227", "GFP, % of control": 181, "viability (ATP), % of control": 67.2, "call": "active"}
{"gene symbol": "Mesp1 (mesoderm posterior 1)", "PubChem SID": "SID363567365", "GFP, % of control": 83.5, "viability (ATP), % of control": 82.5, "call": "inactive"}
{"gene symbol": "Mesp1 (mesoderm posterior 1)", "PubChem SID": "SID363584722", "GFP, % of control": 96.3, "viability (ATP), % of control": 46.3, "call": "inactive"}
{"gene symbol": "4932414J04Rik (RIKEN cDNA 4932414J04 gene)", "PubChem SID": "SID363547305", "GFP, % of control": 88.1, "viability (ATP), % of control": 60.2, "call": "inactive"}
{"gene symbol": "4932414J04Rik (RIKEN cDNA 4932414J04 gene)", "PubChem SID": "SID363558074", "GFP, % of control": 96.8, "viability (ATP), % of control": 105, "call": "inactive"}
{"gene symbol": "4932414J04Rik (RIKEN cDNA 4932414J04 gene)", "PubChem SID": "SID363559832", "GFP, % of control": 111, "viability (ATP), % of control": 73.1, "call": "inactive"}
{"gene symbol": "Slc29a1", "PubChem SID": "SID363574849", "GFP, % of control": 141, "viability (ATP), % of control": 121, "call": "active"}
{"gene symbol": "Slc29a1", "PubChem SID": "SID363575905", "GFP, % of control": 87.5, "viability (ATP), % of control": 77.5, "call": "inactive"}
{"gene symbol": "Slc29a1", "PubChem SID": "SID363580481", "GFP, % of control": 95.9, "viability (ATP), % of control": 102, "call": "inactive"}
{"gene symbol": "Crybg1 (crystallin beta-gamma domain containing 1)", "PubChem SID": "SID363546575", "GFP, % of control": 67.7, "viability (ATP), % of control": 67.2, "call": "inactive"}
{"gene symbol": "Crybg1 (crystallin beta-gamma domain containing 1)", "PubChem SID": "SID363548331", "GFP, % of control": 64.1, "viability (ATP), % of control": 84.8, "call": "inactive"}
{"gene symbol": "Crybg1 (crystallin beta-gamma domain containing 1)", "PubChem SID": "SID363560509", "GFP, % of control": 95.3, "viability (ATP), % of control": 101, "call": "inactive"}

Next part (3 carried over from the part before).
{"gene symbol": "Crybg1 (crystallin beta-gamma domain containing 1)", "PubChem SID": "SID363546575", "GFP, % of control": 67.7, "viability (ATP), % of control": 67.2, "call": "inactive"}
{"gene symbol": "Crybg1 (crystallin beta-gamma domain containing 1)", "PubChem SID": "SID363548331", "GFP, % of control": 64.1, "viability (ATP), % of control": 84.8, "call": "inactive"}
{"gene symbol": "Crybg1 (crystallin beta-gamma domain containing 1)", "PubChem SID": "SID363560509", "GFP, % of control": 95.3, "viability (ATP), % of control": 101, "call": "inactive"}
{"gene symbol": "Trim7 (tripartite motif-containing 7)", "PubChem SID": "SID363541660", "GFP, % of control": 40, "viability (ATP), % of control": 47.2, "call": "inactive"}
{"gene symbol": "Trim7 (tripartite motif-containing 7)", "PubChem SID": "SID363553252", "GFP, % of control": 52.8, "viability (ATP), % of control": 57.1, "call": "inactive"}
{"gene symbol": "Trim7 (tripartite motif-containing 7)", "PubChem SID": "SID363566576", "GFP, % of control": 95.9, "viability (ATP), % of control": 73.4, "call": "inactive"}
{"gene symbol": "Exoc7 (exocyst complex component 7)", "PubChem SID": "SID363553549", "GFP, % of control": 67.4, "viability (ATP), % of control": 70.4, "call": "inactive"}
{"gene symbol": "Exoc7 (exocyst complex component 7)", "PubChem SID": "SID363561506", "GFP, % of control": 84.7, "viability (ATP), % of control": 64.2, "call": "inactive"}
{"gene symbol": "Exoc7 (exocyst complex component 7)", "PubChem SID": "SID363565244", "GFP, % of control": 82.6, "viability (ATP), % of control": 43.5, "call": "inactive"}
{"gene symbol": "Prss3 (serine protease 3)", "PubChem SID": "SID363547498", "GFP, % of control": 114, "viability (ATP), % of control": 100, "call": "inactive"}
{"gene symbol": "Prss3 (serine protease 3)", "PubChem SID": "SID363558267", "GFP, % of control": 67.8, "viability (ATP), % of control": 68.4, "call": "inactive"}
{"gene symbol": "Prss3 (serine protease 3)", "PubChem SID": "SID363560025", "GFP, % of control": 95.6, "viability (ATP), % of control": 103, "call": "inactive"}
{"gene symbol": "Nlrp6 (NLR family, pyrin domain containing 6)", "PubChem SID": "SID363562079", "GFP, % of control": 79.5, "viability (ATP), % of control": 72.9, "call": "inactive"}
{"gene symbol": "Nlrp6 (NLR family, pyrin domain containing 6)", "PubChem SID": "SID363567217", "GFP, % of control": 22.3, "viability (ATP), % of control": 27.1, "call": "inactive"}
{"gene symbol": "Nlrp6 (NLR family, pyrin domain containing 6)", "PubChem SID": "SID363584574", "GFP, % of control": 62.7, "viability (ATP), % of control": 41.8, "call": "inactive"}
{"gene symbol": "Lmntd1 (lamin tail domain containing 1)", "PubChem SID": "SID363540901", "GFP, % of control": 63.1, "viability (ATP), % of control": 60.6, "call": "inactive"}
{"gene symbol": "Lmntd1 (lamin tail domain containing 1)", "PubChem SID": "SID363555528", "GFP, % of control": 67, "viability (ATP), % of control": 80, "call": "inactive"}
{"gene symbol": "Lmntd1 (lamin tail domain containing 1)", "PubChem SID": "SID363565817", "GFP, % of control": 59.3, "viability (ATP), % of control": 72, "call": "inactive"}
